In patent publication US7238668B1, “Inhibition of lymphocyte adherence with CS-1-peptides and fragments thereof” (Fred Hutchinson Cancer Research Center, priority 1989, dated 2007) one finds binding data, which are given here for three molecules.

Results are given in words; binding and its absence hold for the method and conditions named. Binding calls can cover weak binding; strength is not graded here.

To fix the notation:
B1: GPEILDVPST peptide (peptide)
peptide: GPEILDVPST
notes: also called peptide 354
B2: CS-1 peptide (peptide)
peptide: DELPQLVTLPHPNLHGPEILDVPST
notes: Free peptide; also called peptide 344; synthetic CS-1
B3: B12 peptide (peptide)
peptide: LHGPEILDVPST
notes: also called CS-1-B12

For this assay, the target named is integrin receptor α4β1 (human). Briefly: peptide inhibition of lymphocyte adhesion to fibronectin (column Inhibition).
As for B1, the binding result is “binds”.

On to B2, for which the binding entry is “binds”.

On to B3, for which the binding result is listed as “binds”.
